Measurements: patent publication US5428015A, “Vasoactive intestinal polypeptide analogues and use thereof” (Sana Kagaku Kenkyusho Co., Ltd., priority 1990, dated 1995)
Part of at least one peptide drawing is inferred or uncertain, most often the ends. Where a SMILES comes first, the peptide text is derived from it. [ ]: non-standard residue; d: D form. hSer = N[C@@H](CCO)C(=O)O

Columns and labels:
arterial pressure = test: Hypotensing action: arterial pressure after injection in femoral artery; assay type: in vivo; conditions: anethtized beagle dog, 0.02-10 μg/kg
Description: In a femoral artery of anethtized beagle dog, each of the VIP analogues as Test Samples was injected in a dose of 0.02-10 μg/kg and measured an arterial pressure to prepare a chart showing a relation between the dose and change in blood pressure and check an amount of dose which shall cause a reduction of 15 mmHg in blood pressure.

PCA reaction = test: Anti-allergic action: passive cutaneous anaphylaxis test (PCA reaction); assay type: in vivo; conditions: rat, injected into a vein
Description: A rat was immunized with egg-albumin suspended in aluminum hydroxide gel in a conventional manner and a blood letting was carried out to obtain immune serum rich in IgE.
A male rat was anethtized with ether and hairs on back were sheared to intradenally inject by 0.1 ml of the immune serum solution described in Item (1) and diluted to 5-folds, at both sides with a certain distance from a medial line on the back. After 72 hours, a mixed solution of egg albumin (5 mg/kg), 2% Evans blue and a test compound ([L-Leu^17 ]-VIP-Hse or pure native VIP) or disodium cromoglycate was injected into a vein. After 30 minutes from an occasion of PCA reaction, the experimental animal was killed and pealed-off the skin to obtain a piece of the skin dyed with the coloring matter.
The coloring matter was extracted in accordance with the method described by Katayama ["Microbio. Immunol.", Vol. 22, No. 2, pages 89 (1978)] and an amount thereof was measured at 620 nm in wave length to calculate an inhibition of the PCA reaction.

Structure (SMILES) | amount of dose causing a reduction of 15 mmHg in blood pressure, relative value (native VIP = 100%) (arterial pressure) | Inhibition (%) of the PCA reaction (PCA reaction; dose 0.01 mg/kg) | Inhibition (%) of the PCA reaction (PCA reaction; dose 0.1 mg/kg) | Inhibition (%) of the PCA reaction (PCA reaction; dose 1.0 mg/kg)
CC[C@H](C)[C@H](NC(=O)[C@H](CO)NC(=O)[C@H](CC(N)=O)NC(=O)[C@H](CC(C)C)NC(=O)[C@H](Cc1ccc(O)cc1)NC(=O)[C@H](CCCCN)NC(=O)[C@H](CCCCN)NC(=O)[C@@H](NC(=O)[C@H](C)NC(=O)[C@H](CC(C)C)NC(=O)[C@H](CCC(N)=O)NC(=O)[C@H](CCCCN)NC(=O)[C@H](CCCNC(=N)N)NC(=O)[C@H](CC(C)C)NC(=O)[C@H](CCCNC(=N)N)NC(=O)[C@@H](NC(=O)[C@H](Cc1ccc(O)cc1)NC(=O)[C@H](CC(N)=O)NC(=O)[C@H](CC(=O)O)NC(=O)[C@@H](NC(=O)[C@H](Cc1ccccc1)NC(=O)[C@@H](NC(=O)[C@H](C)NC(=O)[C@H](CC(=O)O)NC(=O)[C@H](CO)NC(=O)[C@@H](N)Cc1c[nH]cn1)C(C)C)[C@@H](C)O)[C@@H](C)O)C(C)C)C(=O)N[C@@H](CC(C)C)C(=O)N[C@@H](CC(N)=O)C(=O)N[C@@H](CCO)C(N)=O [[L-Leu^17]-VIP-Hse-NH2] (H-HSDAVFTDNYTRLRKQLAVKKYLNSILN[hSer]-NH2) | 54% |  |  | 
CC[C@H](C)[C@H](NC(=O)[C@H](CO)NC(=O)[C@H](CC(N)=O)NC(=O)[C@H](CC(C)C)NC(=O)[C@H](Cc1ccc(O)cc1)NC(=O)[C@H](CCCCN)NC(=O)[C@H](CCCCN)NC(=O)[C@@H](NC(=O)[C@H](C)NC(=O)[C@H](CC(C)C)NC(=O)[C@H](CCC(N)=O)NC(=O)[C@H](CCCCN)NC(=O)[C@H](CCCNC(=N)N)NC(=O)[C@H](CC(C)C)NC(=O)[C@H](CCCNC(=N)N)NC(=O)[C@@H](NC(=O)[C@H](Cc1ccc(O)cc1)NC(=O)[C@H](CC(N)=O)NC(=O)[C@H](CC(=O)O)NC(=O)[C@@H](NC(=O)[C@H](Cc1ccccc1)NC(=O)[C@@H](NC(=O)[C@H](C)NC(=O)[C@H](CC(=O)O)NC(=O)[C@H](CO)NC(=O)[C@@H](N)Cc1c[nH]cn1)C(C)C)[C@@H](C)O)[C@@H](C)O)C(C)C)C(=O)N[C@@H](CC(C)C)C(=O)N[C@@H](CC(N)=O)C(=O)N[C@@H](CCO)C(=O)O [[L-Leu^17]-VIP-Hse] (H-HSDAVFTDNYTRLRKQLAVKKYLNSILN[hSer]-OH) | 21% | 31% | 79% | 68%
